Assay results published in patent US20200325518A1, “Systems and Methods for Metabolic Assessment Utilizing 1-Methoxy-PMS Field” (priority 2019, published 2020).

Tested on: K. pneumoniae
Assay: Dual assays percent correct score versus algorithmically called MIC
Format: cell-based
Settings: more than 30 strains

## Gentamycin
  percent correct score, metabolic assay versus algorithmically called MIC: 83%
  percent correct score, surface binding assay versus algorithmically called MIC: 95%
